Tests used:
[1] = Negative inotropic activity in guinea pig left atrium assessed as decrease in atrial tension relative to control; assay type: functional, tissue-based; settings: Cavia porcellus, Cardiac atrium
Outline: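 Negative inotropic potency in guinea pig left atrium. EC50 is calculated from log concentration-response curves by probit analysis (Litchfield and Wilcoxon), n = 6-8.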

Ileum = assay: Vasorelaxant activity in K+-depolarized guinea pig ileum longitudinal smooth muscle assessed as inhibition of calcium-induced contraction; assay type: functional, tissue-based; settings: Cavia porcellus

- EC50 [1]: 1.54 µM
- IC50 (Ileum): 27.1 µM
Compound: CC(C)NC[C@@H](O)COc1cccc2ccccc12 [DEXPROPRANOLOL]

— ChEMBL document CHEMBL1140072, “Discovery of novel and cardioselective diltiazem-like calcium channel blockers via virtual screening” (J Med Chem, 2008)
